This is one part of the list. Most values lie at the level of the controls, where differences are scatter.

Chains of the proteins cited; added tags and fusions are not shown. Lines headed by an entry give the natural chain unless they say otherwise; changes in a name come on top.
UniProt Q8IZP2: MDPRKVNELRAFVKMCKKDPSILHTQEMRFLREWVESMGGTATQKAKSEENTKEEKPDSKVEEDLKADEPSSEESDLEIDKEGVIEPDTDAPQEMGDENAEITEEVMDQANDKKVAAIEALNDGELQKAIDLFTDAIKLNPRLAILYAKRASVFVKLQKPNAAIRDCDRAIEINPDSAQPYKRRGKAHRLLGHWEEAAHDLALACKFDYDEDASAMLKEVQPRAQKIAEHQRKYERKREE
UniProt Q8IYN6: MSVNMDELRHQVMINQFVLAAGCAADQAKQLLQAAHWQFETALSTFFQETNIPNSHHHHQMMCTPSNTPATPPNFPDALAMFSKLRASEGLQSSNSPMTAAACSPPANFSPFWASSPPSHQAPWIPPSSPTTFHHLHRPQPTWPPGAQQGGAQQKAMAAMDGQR
UniProt Q8IY31, whole entry: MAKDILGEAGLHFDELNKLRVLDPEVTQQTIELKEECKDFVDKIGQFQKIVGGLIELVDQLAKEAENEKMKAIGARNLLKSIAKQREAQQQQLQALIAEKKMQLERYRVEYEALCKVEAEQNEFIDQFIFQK
UniProt Q8IYU2: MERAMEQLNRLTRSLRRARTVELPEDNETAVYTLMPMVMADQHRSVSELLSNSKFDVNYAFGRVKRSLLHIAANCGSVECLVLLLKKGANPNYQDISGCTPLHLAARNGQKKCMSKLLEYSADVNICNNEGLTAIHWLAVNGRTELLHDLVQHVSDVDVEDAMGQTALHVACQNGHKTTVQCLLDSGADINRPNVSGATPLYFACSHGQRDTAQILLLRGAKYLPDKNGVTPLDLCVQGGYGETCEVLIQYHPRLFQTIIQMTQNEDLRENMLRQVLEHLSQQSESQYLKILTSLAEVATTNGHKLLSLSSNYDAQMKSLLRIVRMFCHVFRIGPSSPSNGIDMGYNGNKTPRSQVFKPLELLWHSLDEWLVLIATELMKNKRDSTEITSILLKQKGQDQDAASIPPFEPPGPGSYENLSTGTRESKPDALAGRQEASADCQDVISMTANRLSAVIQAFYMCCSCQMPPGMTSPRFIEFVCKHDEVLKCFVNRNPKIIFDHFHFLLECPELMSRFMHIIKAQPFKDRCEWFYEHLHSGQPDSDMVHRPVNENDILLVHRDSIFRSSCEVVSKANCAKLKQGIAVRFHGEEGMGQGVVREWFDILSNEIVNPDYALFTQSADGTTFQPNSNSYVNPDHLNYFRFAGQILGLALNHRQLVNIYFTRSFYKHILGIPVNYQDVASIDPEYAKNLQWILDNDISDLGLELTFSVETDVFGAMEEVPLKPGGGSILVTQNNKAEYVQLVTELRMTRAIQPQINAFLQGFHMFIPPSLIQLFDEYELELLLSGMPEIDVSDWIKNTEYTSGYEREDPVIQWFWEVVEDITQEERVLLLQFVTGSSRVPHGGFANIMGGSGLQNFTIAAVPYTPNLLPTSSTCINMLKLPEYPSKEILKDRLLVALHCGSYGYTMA
UniProt Q86YS7: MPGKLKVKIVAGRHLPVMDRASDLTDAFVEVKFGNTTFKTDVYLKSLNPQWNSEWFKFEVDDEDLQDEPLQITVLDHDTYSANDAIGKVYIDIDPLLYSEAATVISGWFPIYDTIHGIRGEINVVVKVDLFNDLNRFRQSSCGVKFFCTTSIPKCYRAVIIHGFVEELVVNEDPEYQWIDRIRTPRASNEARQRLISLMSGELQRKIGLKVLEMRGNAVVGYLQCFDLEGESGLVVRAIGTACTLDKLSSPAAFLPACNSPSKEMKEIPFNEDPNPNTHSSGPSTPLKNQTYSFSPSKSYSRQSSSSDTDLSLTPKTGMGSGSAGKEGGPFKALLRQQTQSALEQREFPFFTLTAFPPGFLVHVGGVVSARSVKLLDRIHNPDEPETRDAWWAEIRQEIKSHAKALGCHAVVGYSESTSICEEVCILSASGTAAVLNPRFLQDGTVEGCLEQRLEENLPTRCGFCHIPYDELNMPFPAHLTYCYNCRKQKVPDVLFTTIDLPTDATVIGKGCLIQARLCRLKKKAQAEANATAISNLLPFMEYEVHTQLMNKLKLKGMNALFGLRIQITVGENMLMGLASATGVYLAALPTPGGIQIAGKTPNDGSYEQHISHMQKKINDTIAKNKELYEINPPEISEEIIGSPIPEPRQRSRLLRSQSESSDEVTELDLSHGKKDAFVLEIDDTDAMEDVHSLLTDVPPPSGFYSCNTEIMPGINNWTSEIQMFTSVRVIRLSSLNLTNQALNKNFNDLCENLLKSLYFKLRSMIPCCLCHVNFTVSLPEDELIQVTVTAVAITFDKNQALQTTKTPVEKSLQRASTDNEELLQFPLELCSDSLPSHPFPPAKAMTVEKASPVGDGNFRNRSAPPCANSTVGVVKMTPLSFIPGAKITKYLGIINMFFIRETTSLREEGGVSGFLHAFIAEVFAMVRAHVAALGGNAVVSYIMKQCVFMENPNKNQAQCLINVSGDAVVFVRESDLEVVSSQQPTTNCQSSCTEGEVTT
UniProt Q86X02: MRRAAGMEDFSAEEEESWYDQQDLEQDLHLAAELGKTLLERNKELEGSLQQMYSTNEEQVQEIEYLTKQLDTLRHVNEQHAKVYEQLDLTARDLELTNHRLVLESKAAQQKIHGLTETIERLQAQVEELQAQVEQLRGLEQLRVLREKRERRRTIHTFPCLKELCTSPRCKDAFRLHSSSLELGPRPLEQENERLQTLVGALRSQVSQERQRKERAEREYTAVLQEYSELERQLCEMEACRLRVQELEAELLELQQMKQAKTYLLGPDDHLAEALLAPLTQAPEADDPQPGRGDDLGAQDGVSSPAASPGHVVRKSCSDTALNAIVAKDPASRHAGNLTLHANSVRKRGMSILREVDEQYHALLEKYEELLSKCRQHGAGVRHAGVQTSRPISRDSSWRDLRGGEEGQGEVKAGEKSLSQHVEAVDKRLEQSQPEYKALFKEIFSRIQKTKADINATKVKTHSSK
UniProt Q8IZN3: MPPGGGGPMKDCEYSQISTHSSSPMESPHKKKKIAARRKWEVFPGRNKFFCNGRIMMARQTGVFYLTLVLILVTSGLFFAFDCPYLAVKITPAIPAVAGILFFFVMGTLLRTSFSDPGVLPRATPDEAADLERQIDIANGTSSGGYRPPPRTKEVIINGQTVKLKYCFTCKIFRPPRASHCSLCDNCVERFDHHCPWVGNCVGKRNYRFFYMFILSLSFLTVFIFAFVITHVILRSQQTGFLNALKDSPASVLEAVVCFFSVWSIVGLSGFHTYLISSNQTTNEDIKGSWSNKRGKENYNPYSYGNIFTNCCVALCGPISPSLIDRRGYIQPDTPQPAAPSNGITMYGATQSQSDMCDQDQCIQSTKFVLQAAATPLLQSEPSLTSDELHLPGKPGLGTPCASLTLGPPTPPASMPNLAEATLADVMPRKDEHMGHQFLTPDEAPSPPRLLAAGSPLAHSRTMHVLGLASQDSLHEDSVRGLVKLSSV
UniProt Q86Y91: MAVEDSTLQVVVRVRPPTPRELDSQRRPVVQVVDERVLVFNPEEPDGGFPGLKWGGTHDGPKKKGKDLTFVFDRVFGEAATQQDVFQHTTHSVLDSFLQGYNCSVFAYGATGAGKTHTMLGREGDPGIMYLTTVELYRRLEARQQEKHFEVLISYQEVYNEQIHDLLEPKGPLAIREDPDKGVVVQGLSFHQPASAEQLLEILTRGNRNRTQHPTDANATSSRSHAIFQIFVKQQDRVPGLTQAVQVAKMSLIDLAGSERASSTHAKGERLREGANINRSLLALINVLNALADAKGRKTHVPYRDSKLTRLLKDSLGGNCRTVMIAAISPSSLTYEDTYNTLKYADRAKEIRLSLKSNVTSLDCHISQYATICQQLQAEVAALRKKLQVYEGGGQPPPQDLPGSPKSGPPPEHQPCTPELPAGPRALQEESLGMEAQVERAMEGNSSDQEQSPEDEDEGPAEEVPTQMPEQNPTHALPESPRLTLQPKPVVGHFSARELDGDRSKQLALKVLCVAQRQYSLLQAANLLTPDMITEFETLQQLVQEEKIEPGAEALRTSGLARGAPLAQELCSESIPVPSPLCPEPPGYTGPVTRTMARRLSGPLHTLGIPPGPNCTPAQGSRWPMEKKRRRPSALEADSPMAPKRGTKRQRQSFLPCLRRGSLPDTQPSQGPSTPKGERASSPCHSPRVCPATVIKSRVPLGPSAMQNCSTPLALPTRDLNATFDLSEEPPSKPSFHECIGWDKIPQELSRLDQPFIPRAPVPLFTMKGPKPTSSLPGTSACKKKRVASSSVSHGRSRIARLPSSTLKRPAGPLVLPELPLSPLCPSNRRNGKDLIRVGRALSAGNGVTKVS
UniProt Q86X29: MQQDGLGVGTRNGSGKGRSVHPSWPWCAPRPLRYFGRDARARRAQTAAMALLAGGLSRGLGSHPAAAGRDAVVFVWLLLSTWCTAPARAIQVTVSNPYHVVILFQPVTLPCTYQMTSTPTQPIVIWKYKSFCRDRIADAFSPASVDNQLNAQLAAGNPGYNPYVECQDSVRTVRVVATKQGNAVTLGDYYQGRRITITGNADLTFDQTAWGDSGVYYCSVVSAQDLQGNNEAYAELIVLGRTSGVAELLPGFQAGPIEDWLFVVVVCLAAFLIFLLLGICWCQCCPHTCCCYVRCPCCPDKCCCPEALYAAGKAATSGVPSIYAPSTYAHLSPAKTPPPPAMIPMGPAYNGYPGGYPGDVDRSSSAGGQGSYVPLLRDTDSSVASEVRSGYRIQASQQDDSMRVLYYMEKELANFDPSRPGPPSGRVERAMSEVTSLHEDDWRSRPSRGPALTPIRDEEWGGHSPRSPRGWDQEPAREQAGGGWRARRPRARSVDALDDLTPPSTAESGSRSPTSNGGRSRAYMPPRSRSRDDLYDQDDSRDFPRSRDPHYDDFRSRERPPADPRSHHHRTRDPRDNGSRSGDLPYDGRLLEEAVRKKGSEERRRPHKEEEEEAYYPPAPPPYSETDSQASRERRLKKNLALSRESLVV
UniProt Q8IXJ9: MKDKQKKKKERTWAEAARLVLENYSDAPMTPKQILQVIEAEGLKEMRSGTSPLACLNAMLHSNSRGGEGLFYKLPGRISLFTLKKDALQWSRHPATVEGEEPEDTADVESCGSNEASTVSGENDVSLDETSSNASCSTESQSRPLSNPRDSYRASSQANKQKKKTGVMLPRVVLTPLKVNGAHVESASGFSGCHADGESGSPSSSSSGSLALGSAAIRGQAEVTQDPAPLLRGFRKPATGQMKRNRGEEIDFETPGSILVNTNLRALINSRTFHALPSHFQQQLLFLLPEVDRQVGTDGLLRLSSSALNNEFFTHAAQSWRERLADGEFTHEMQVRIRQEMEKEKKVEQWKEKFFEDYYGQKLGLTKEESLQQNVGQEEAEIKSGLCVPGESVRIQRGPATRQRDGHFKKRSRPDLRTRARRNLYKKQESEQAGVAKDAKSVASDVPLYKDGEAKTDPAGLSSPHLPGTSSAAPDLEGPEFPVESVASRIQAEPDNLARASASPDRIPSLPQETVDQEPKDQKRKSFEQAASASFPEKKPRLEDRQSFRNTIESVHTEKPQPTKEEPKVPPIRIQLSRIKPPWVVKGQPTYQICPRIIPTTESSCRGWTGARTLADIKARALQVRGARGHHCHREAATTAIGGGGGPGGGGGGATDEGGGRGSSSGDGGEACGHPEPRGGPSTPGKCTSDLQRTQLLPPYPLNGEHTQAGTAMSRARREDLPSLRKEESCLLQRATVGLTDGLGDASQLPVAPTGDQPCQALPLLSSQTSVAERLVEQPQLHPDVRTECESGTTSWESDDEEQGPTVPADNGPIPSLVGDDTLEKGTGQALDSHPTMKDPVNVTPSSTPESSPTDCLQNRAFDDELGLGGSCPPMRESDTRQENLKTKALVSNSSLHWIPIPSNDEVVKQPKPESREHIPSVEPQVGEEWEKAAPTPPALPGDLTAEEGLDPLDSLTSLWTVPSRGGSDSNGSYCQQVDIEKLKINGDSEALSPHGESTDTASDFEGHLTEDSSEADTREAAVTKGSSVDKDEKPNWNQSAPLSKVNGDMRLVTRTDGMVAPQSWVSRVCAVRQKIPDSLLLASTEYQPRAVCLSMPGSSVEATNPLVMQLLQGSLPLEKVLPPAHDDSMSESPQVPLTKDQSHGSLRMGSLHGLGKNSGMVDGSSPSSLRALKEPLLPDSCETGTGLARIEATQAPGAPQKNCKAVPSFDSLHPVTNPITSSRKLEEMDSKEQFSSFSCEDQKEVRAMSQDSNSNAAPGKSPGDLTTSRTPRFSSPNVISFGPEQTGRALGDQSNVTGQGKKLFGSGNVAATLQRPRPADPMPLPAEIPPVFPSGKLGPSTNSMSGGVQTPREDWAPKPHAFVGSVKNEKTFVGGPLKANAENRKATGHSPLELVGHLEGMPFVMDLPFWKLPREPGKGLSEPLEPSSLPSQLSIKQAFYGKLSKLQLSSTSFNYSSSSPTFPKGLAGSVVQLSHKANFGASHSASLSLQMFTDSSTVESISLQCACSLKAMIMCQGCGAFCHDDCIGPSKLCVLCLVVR

Compound in this assay: CN[C@@H]1C[C@H]2O[C@@](C)([C@@H]1OC)n1c3ccccc3c3c4c(c5c6ccccc6n2c5c31)C(=O)NC4 [staurosporine]
Put plainly: log2 fold change of tryptic peptide abundance, ligand vs vehicle (limited proteolysis) (log2 ratio); higher = more trypsin-susceptible (destabilized). Conditions: ligand concentration: 20 uM; sample: K562 cleared lysate; digestion: 4 min, 22 C (HT-PELSA RT4min, Orbitrap Astral).
Consider “ZFPM1 (peptide sequence: DVFPCKDCGIWYR, peptide start residue: 239) (UniProt Q8IX07)”, for which the log2 fold change amounted to 0.433. Next, “ASPM (peptide sequence: VFQHNELKK, peptide start residue: 2596) (UniProt Q8IZT6)”: 1.2; “PDIK1L (peptide sequence: DLKPDNILISQTR, peptide start residue: 164) (UniProt Q8N165)”: -0.267. Next, “ARMC8 (peptide sequence: YPSSVSAITDIK, peptide start residue: 334) (UniProt Q8IUR7)”: 0.264; “HIPK1 (peptide sequence: VVADGTGTR, peptide start residue: 975) (UniProt Q86Z02)”: -0.24; “PLEKHM2 (peptide sequence: ASRDPWC, peptide start residue: 1013) (UniProt Q8IWE5)”: -0.558. Next, “ST13P4 (peptide sequence: LQKPNAAIR, peptide start residue: 161) (UniProt Q8IZP2)”: 0.252. “MGA (peptide sequence: KLEYIYAK, peptide start residue: 2513) (UniProt Q8IWI9)”: the log2 fold change is 0.611. “STK40 (peptide sequence: ALGSGISGNNAK, peptide start residue: 19) (UniProt Q8N2I9)”: the log2 fold change was found to be 0.375. Next, “UniProt Q8IYN6 (peptide sequence: AMAAMDGQR, peptide start residue: 156)”: -0.0691. In the case of “IFT20 (peptide sequence: DILGEAGLHFDELNK, peptide start residue: 4) (UniProt Q8IY31)” it was -0.015. Next, “HACE1 (peptide sequence: DSTEITSILLK, peptide start residue: 384) (UniProt Q8IYU2)”: -0.0888; “RBM12B (peptide sequence: YAFVMFK, peptide start residue: 326) (UniProt Q8IXT5)”: -0.592; “CBWD2 (peptide sequence: TDLVPEEDVK, peptide start residue: 205) (UniProt Q8IUF1)”: 0.293. With “UniProt Q86YS7 (peptide sequence: TPNDGSYEQHISHMQK, peptide start residue: 601)”, the log2 fold change was determined as 0.219. In the case of “CDR2L (peptide sequence: LEQSQPEYK, peptide start residue: 429) (UniProt Q86X02)” it was -0.292. Next, “RAB11FIP4 (peptide sequence: INLLNDLEAR, peptide start residue: 281) (UniProt Q86YS3)”: -0.558; “ZNF280B (peptide sequence: VTPGSWSR, peptide start residue: 64) (UniProt Q86YH2)”: 0.219.

As to “REXO1 (peptide sequence: EFGGKVPTVIR, peptide start residue: 808) (UniProt Q8N1G1)”, the log2 fold change was -0.856. In the case of “ZDHHC14 (peptide sequence: TMHVLGLASQDSLHEDSVR, peptide start residue: 462) (UniProt Q8IZN3)” it was -0.64; in that of “KIF18B (peptide sequence: RPSALEADSPMAPK, peptide start residue: 631) (UniProt Q86Y91)”, -0.624; in that of “UniProt Q8IVL6 (peptide sequence: LLLEVSER, peptide start residue: 534)”, -0.269.

With “ANKRD13B (peptide sequence: VYGASNVELITR, peptide start residue: 275) (UniProt Q86YJ7)”, the log2 fold change is -0.326. In the case of “UniProt Q8IX01 (peptide sequence: GADQKPTSADCAVR, peptide start residue: 646)” it was -0.181; in that of “TICAM1 (peptide sequence: LSLHQVNQAMMSNLTR, peptide start residue: 464) (UniProt Q8IUC6)”, 0.128.

As to “UniProt Q8IYU8 (peptide sequence: GLWVPQHQSIQEYWK, peptide start residue: 398)”, the log2 fold change is -0.46. Next, “LSR (peptide sequence: VLYYMEK, peptide start residue: 404) (UniProt Q86X29)”: -0.229; “UniProt Q8IX90 (peptide sequence: TDVKDDLSDPPVASSCISEKSPR, peptide start residue: 132)”: 0.478.

In the case of “FAM219A (peptide sequence: EGESVAMNYKPSPLQVK, peptide start residue: 36) (UniProt Q8IW50)”, the log2 fold change is 0.178.

On to “KMT2E (peptide sequence: HLVNEWLSEKNEK, peptide start residue: 733) (UniProt Q8IZD2)”, for which the log2 fold change is -0.286. Regarding “UniProt Q8IWZ8 (peptide sequence: EGREPDYSEYKEFK, peptide start residue: 546)”, the log2 fold change was -0.294. In the case of “ASCC3 (peptide sequence: HREQLVIEVGR, peptide start residue: 949) (UniProt Q8N3C0)” it was -0.218; in that of “CARM1 (peptide sequence: SSNLLDLKNPFFR, peptide start residue: 463) (UniProt Q86X55)”, -0.127. As to “UniProt Q8N3L3 (peptide sequence: HRELQQK, peptide start residue: 302)”, the log2 fold change is -0.135. In the case of “ASXL1 (peptide sequence: SGTSPLACLNAMLHSNSR, peptide start residue: 48) (UniProt Q8IXJ9)” it was 0.333; in that of “ZNF100 (peptide sequence: FHITENSYQCK, peptide start residue: 226) (UniProt Q8IYN0)”, -0.611; in that of “UniProt Q8IZX4 (peptide sequence: IITRPMDLQTLR, peptide start residue: 1420)”, 0.286.

These data come from the supplement of paper PMC12819154, “High-throughput peptide-centric local stability assay extends protein–ligand identification to membrane proteins, tissues and bacteria” (Nature Structural & Molecular Biology, 2025).
